According to paper PMC8139834:
These are yes or no findings as the source states them, for the method shown. In cells and extracts the contact can be indirect. Some binding calls cover weakened binding; strength is not graded here. For part of these data: Sequences can lack the tags named with a protein.

T1: Qki-5 (mouse (endogenous in oligodendrocytes differentiated from mouse NSCs)) (UniProt Q9QYS9)
T1 sequence: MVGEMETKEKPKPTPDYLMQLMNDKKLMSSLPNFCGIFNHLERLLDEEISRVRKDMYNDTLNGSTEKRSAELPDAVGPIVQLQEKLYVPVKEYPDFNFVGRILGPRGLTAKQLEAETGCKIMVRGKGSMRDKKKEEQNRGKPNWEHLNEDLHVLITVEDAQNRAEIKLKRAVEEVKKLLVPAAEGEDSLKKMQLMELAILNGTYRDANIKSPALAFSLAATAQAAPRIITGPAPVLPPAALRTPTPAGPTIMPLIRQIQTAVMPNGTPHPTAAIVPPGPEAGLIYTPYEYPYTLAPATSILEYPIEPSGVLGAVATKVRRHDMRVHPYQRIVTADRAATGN

T2: 3X Flag-Srebp2 (UniProt Q12772)
T2 sequence: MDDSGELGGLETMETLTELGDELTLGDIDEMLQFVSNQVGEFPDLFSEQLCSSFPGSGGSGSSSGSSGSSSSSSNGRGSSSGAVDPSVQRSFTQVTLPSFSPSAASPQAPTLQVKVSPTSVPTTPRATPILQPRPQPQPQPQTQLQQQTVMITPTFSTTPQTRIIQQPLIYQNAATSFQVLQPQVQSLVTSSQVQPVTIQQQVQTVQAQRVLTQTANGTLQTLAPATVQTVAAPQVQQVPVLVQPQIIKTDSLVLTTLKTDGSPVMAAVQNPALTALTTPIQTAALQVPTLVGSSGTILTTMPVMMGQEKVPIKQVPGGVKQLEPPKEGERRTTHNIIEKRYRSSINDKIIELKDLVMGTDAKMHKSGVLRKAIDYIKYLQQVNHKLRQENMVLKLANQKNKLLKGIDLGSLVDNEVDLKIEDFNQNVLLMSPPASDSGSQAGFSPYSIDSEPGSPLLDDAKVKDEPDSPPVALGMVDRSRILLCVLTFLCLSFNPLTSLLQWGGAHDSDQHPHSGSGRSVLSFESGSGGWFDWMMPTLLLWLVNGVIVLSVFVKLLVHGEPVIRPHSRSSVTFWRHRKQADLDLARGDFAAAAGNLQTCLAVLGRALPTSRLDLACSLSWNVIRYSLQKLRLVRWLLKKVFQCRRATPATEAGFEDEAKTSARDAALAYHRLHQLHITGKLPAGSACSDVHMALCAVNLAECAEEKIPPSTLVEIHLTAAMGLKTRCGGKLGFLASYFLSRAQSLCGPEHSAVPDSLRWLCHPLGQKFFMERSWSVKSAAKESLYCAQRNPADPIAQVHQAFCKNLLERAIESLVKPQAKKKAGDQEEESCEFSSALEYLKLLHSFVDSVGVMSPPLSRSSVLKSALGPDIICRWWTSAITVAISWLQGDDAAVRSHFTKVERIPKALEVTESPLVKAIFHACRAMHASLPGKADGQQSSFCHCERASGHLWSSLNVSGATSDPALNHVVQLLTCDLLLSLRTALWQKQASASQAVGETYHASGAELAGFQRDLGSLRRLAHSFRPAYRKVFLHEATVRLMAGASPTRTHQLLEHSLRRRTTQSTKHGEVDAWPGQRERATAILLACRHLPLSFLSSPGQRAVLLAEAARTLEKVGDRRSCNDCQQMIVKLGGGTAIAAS

T3: Srebp2 (sterol regulatory element-binding protein 2) (mouse (endogenous in oligodendrocytes differentiated from mouse NSCs)) (UniProt Q3U1N2)
T3 sequence: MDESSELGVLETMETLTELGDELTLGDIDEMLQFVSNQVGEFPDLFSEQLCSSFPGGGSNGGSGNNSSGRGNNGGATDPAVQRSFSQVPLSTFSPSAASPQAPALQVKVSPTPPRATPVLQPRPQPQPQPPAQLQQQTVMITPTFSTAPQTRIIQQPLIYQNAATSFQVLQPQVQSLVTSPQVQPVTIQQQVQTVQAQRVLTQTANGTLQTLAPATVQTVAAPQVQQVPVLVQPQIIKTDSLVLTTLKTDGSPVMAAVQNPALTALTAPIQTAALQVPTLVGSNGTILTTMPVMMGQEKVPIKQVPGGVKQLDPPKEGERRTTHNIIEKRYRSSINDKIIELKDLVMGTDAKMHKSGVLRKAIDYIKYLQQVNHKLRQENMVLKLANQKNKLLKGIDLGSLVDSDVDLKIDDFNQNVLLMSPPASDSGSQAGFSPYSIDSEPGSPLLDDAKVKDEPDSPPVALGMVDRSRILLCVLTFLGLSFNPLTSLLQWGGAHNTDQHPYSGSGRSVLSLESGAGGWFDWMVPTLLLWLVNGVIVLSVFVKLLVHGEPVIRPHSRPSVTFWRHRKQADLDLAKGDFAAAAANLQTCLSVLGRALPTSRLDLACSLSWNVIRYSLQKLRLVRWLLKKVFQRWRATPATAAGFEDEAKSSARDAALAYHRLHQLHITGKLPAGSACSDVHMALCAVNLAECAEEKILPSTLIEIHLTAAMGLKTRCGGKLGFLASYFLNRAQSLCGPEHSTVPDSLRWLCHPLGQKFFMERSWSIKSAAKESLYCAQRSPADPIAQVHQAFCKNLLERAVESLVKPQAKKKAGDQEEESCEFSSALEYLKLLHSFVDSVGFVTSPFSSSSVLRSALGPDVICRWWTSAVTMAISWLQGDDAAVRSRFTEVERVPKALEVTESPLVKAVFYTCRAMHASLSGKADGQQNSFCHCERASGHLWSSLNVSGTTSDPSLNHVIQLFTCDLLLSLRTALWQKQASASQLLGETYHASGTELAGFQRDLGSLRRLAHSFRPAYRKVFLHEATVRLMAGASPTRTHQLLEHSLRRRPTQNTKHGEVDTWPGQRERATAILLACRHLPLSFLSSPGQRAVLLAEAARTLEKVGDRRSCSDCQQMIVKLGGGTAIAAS


Experiments:
[1] = biological target: T1, Qki-5 (mouse (endogenous in oligodendrocytes differentiated from mouse NSCs)); assay: co-IP; endogenous proteins; differentiated oligodendrocytes cross-linked with 1% formaldehyde, lysed in NP-40 buffer (50 mM Tris-HCl pH 7.4, 150 mM NaCl, 5 mM EDTA, 0.05% NP-40), sonicated; anti-Qki-5 or anti-Srebp2 antibody overnight at 4°C, protein G magnetic beads; immunoblot; normal rabbit IgG as control
3X Flag-Srebp2 = biological target: T2, 3X Flag-Srebp2; assay: co-IP; differentiated oligodendrocytes with ectopic Flag-Srebp2, cross-linked with 1% formaldehyde, NP-40 buffer; anti-Flag M2 magnetic beads for 4 hr; immunoblot of Qki-5; denatured (boiled) anti-FLAG beads as control
[2] = biological target: T3, Srebp2 (sterol regulatory element-binding protein 2) (mouse (endogenous in oligodendrocytes differentiated from mouse NSCs)); assay: co-IP; endogenous proteins; differentiated oligodendrocytes cross-linked with 1% formaldehyde, lysed in NP-40 buffer (50 mM Tris-HCl pH 7.4, 150 mM NaCl, 5 mM EDTA, 0.05% NP-40), sonicated; anti-Qki-5 or anti-Srebp2 antibody overnight at 4°C, protein G magnetic beads; immunoblot; normal rabbit IgG as control

binding [1] | binding (3X Flag-Srebp2) | binding [2] | Binder
binds |  |  | Srebp2 (sterol regulatory element-binding protein 2) (protein, UniProt Q3U1N2 1-1130) MDESSELGVLETMETLTELGDELTLGDIDEMLQFVSNQVGEFPDLFSEQLCSSFPGGGSNGGSGNNSSGRGNNGGATDPAVQRSFSQVPLSTFSPSAASPQAPALQVKVSPTPPRATPVLQPRPQPQPQPPAQLQQQTVMITPTFSTAPQTRIIQQPLIYQNAATSFQVLQPQVQSLVTSPQVQPVTIQQQVQTVQAQRVLTQTANGTLQTLAPATVQTVAAPQVQQVPVLVQPQIIKTDSLVLTTLKTDGSPVMAAVQNPALTALTAPIQTAALQVPTLVGSNGTILTTMPVMMGQEKVPIKQVPGGVKQLDPPKEGERRTTHNIIEKRYRSSINDKIIELKDLVMGTDAKMHKSGVLRKAIDYIKYLQQVNHKLRQENMVLKLANQKNKLLKGIDLGSLVDSDVDLKIDDFNQNVLLMSPPASDSGSQAGFSPYSIDSEPGSPLLDDAKVKDEPDSPPVALGMVDRSRILLCVLTFLGLSFNPLTSLLQWGGAHNTDQHPYSGSGRSVLSLESGAGGWFDWMVPTLLLWLVNGVIVLSVFVKLLVHGEPVIRPHSRPSVTFWRHRKQADLDLAKGDFAAAAANLQTCLSVLGRALPTSRLDLACSLSWNVIRYSLQKLRLVRWLLKKVFQRWRATPATAAGFEDEAKSSARDAALAYHRLHQLHITGKLPAGSACSDVHMALCAVNLAECAEEKILPSTLIEIHLTAAMGLKTRCGGKLGFLASYFLNRAQSLCGPEHSTVPDSLRWLCHPLGQKFFMERSWSIKSAAKESLYCAQRSPADPIAQVHQAFCKNLLERAVESLVKPQAKKKAGDQEEESCEFSSALEYLKLLHSFVDSVGFVTSPFSSSSVLRSALGPDVICRWWTSAVTMAISWLQGDDAAVRSRFTEVERVPKALEVTESPLVKAVFYTCRAMHASLSGKADGQQNSFCHCERASGHLWSSLNVSGTTSDPSLNHVIQLFTCDLLLSLRTALWQKQASASQLLGETYHASGTELAGFQRDLGSLRRLAHSFRPAYRKVFLHEATVRLMAGASPTRTHQLLEHSLRRRPTQNTKHGEVDTWPGQRERATAILLACRHLPLSFLSSPGQRAVLLAEAARTLEKVGDRRSCSDCQQMIVKLGGGTAIAAS
 | binds | binds | Qki-5 (protein, UniProt Q9QYS9-1 1-341) MVGEMETKEKPKPTPDYLMQLMNDKKLMSSLPNFCGIFNHLERLLDEEISRVRKDMYNDTLNGSTEKRSAELPDAVGPIVQLQEKLYVPVKEYPDFNFVGRILGPRGLTAKQLEAETGCKIMVRGKGSMRDKKKEEQNRGKPNWEHLNEDLHVLITVEDAQNRAEIKLKRAVEEVKKLLVPAAEGEDSLKKMQLMELAILNGTYRDANIKSPALAFSLAATAQAAPRIITGPAPVLPPAALRTPTPAGPTIMPLIRQIQTAVMPNGTPHPTAAIVPPGPEAGLIYTPYEYPYTLAPATSILEYPIEPSGVLGAVATKVRRHDMRVHPYQRIVTADRAATGN
